# From PubChem BioAssay AID1487 (National Center for Advancing Translational Sciences (NCATS), 2009)
# Some of the results follow. The main result of the screen is listed elsewhere. These columns were measured beside it and carry no call. Most of these compounds were active or inconclusive in the main read-out, so they are no random draw. The note in brackets gives the kind of curve behind each potency; many fits are weak.
# Test: qHTS Assay for Modulators of Lamin A Splicing
# Conditions: HeLa LMNA splicing GFP/RFP minigene ratio, 48 h
# Outline: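 S3 HeLa stable clones carrying a lamin A-EGFP splicing minigene plus DsRed2 were seeded at 600 cells/well in Opti-MEM with 2% FBS, pin-dosed and incubated 48 h at 37°C. Acumen cytometry (488 nm) gave the GFP/RFP total-intensity ratio.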
# [1] = measured here: GFP splicing reporter channel
# [2] = measured here: RFP viability control channel
Structure (SMILES),AC50 [1],AC50 [2]
CCOC(=O)c1c(C)[nH]c(C)c1S(=O)(=O)N1CCC(C(=O)N2CCN(c3ccccc3F)CC2)CC1,"25.1 µM [rising, single point]","12.6 µM [rising, single point]"
CC(C)CCNC(=O)c1c[nH]c2ccc(S(=O)(=O)N3CCC4(CC3)OCCO4)cc2c1=O,"12.6 µM [rising, single point]",
COc1ccc(S(=O)(=O)NCC(=O)N(CC(=O)NCC2CCCO2)c2c(C)cccc2C)cc1 (stereo not given),,"7.08 µM [rising, partial curve, poor fit]"
COc1cccc(Cn2c(=O)c(-c3ccc(F)cc3)nc3cncnc32)c1,"20 µM [falling, partial curve]","20 µM [falling, partial curve]"
CCC(C)NC(=O)CSc1nc2n[nH]c(C)c2c(=N)n1-c1ccc(OC)cc1 (stereo not given),,"10 µM [rising, partial curve, poor fit]"
CCNC(=O)[C@H]1O[C@@H](n2cnc3c(N)nc(NCCc4ccc(CCC(=O)O)cc4)nc32)[C@H](O)[C@H]1O,"0.00447 µM [falling, full curve, poor fit]",
O=C1c2ccccc2C(O)N1Cc1ccccc1Cl (stereo not given),,"12.6 µM [rising, partial curve]"
Cc1ccccc1-c1ccc2ncnc(NC3CC3)c2c1,"11.2 µM [falling, partial curve]","11.2 µM [falling, partial curve]"
CCC(C)N1C(=O)S/C(=C/c2ccc(Sc3nc4ccccc4[nH]3)o2)C1=O (stereo not given),"7.94 µM [falling, partial curve]","17.8 µM [falling, single point]"
CC(=O)c1ccc(N2CCN(c3ccc(NC(=O)c4ccc(F)cc4)cc3C(=O)O)CC2)cc1,,"2.51 µM [falling, partial curve, poor fit]"
C=CCn1c(NC(=O)c2ccc(C)cc2)c(C#N)sc1=N,,"1.26 µM [falling, full curve]"
Cc1ccc(OCCSc2nc(NC(C)C)nc(NC(C)C)n2)cc1,"22.4 µM [rising, single point]","35.5 µM [rising, single point]"
CCCOc1ccc(/C=c2\sc3ncnn3c2=O)cc1,"3.16 µM [rising, single point]",
O=C(NCCNCC(O)COc1ccc(O)cc1)N1CCOCC1 (stereo not given),"11.2 µM [rising, partial curve, poor fit]","8.91 µM [rising, partial curve, poor fit]"

# Entries of single compounds, quoted from the list.
# COc1ccc(S(=O)(=O)NCC(=O)N(CC(=O)NCC2CCCO2)c2c(C)cccc2C)cc1 (stereo not given) is listed as AC50 [2]: 7.08 µM [rising, partial curve, poor fit]
# CC(C)CCNC(=O)c1c[nH]c2ccc(S(=O)(=O)N3CCC4(CC3)OCCO4)cc2c1=O is listed as AC50 [1]: 12.6 µM [rising, single point]
